Measurements published in PubChem BioAssay AID540276 (National Center for Advancing Translational Sciences (NCATS), 2011).
Values joined by “and” are separate entries in the source; they are usually repeats but may differ in a detail not shown here. Identical values can stand only once. In all, about 300,000 compounds went through this assay and about 5,400 (1.8%) were called active. The inconclusive results got no clear call from the source; some entries with a clear call stand among them for comparison. The call rests on the fitted dose curve; tested in HEK293 cells. Potencies of inconclusive entries are doubtful fits and often do not repeat.

Experiment: qHTS for inhibitors of binding or entry into cells for Marburg Virus
Conditions: Marburg virus pseudotyped entry inhibition, cell reporter; series mostly up to 37.8 µM
Potency means the concentration at half of the fitted maximal effect.

Row | Structure (SMILES) | Potency
1 | CC(C)(C)N(Cc1cc2ccccc2[nH]c1=O)C(=O)C1CCCCC1 | inconclusive: 11.2 µM [activator, partial curve, poor fit]
2 | O=C(CCc1nnc(-c2ccsc2)o1)NCc1ccccc1OC(F)(F)F | inconclusive: 2.24 µM [activator, full curve]
3 | COc1ccc(NCCC#N)cc1 | inconclusive: 2.31 µM [activator, full curve, poor fit]
4 | CCN(CC)c1ccc(-n2c(C)c(C(C)=O)c(C(C)=O)c2C)cc1 | inconclusive: 23.1 µM [inhibitor, single point]
5 | O=C(Nc1nonc1-c1ccc(Cl)cc1)c1ccccc1F | inconclusive: 2.82 µM [inhibitor, single point]
6 | Cn1c(C(=O)N2CCCc3ccccc32)cc2sccc21 | inconclusive: 29.1 µM [inhibitor, single point]
7 | CCOC(=O)c1c(NC(=O)COc2ccccc2F)sc2c1CC(C)(C)NC2(C)C | inconclusive: 25.1 µM [inhibitor, partial curve, poor fit]
8 | C[C@@H]1C=CCCO[C@]12C(=O)Nc1ccc(O)cc12 | inactive
9 | COC(=O)CC1COc2ccccc2N1S(=O)(=O)c1ccc(OC)cc1 (configuration not stated) | inconclusive: 7.08 µM [inhibitor, full curve, poor fit]
10 | CN(c1ccccc1)S(=O)(=O)c1cccc(NS(=O)(=O)c2ccc(/C=C/C(=O)O)cc2)c1 | inconclusive: 6.31 µM [inhibitor, single point]
11 | Cc1c(C)c(C)c(CN2CCCC2)c(C)c1C | inactive
12 | O=C(/C=C/c1ccccc1)NC1CCSC1=O (configuration not stated) | inactive
13 | CC(C)CN(CCCNC(=O)c1cc(-c2ccc(Br)s2)nc2ccccc12)CC(C)C | inactive
14 | Cc1cccc(-n2c(-c3ccco3)n[nH]c2=S)c1 | inconclusive: 1.41 µM [activator, full curve]
15 | COc1cccc(-c2nn(-c3ccccc3)cc2CO)c1 | inconclusive: 2.82 µM [activator, full curve, poor fit]
16 | CCC(Sc1nc(-c2cccc(OC)c2)c(C#N)c(=O)[nH]1)C(=O)Nc1nnc(C(C)C)s1 (configuration not stated) | inconclusive: 22.4 µM [inhibitor, single point]
17 | c1ccc(OCc2nn3c(-c4ccccn4)nnc3s2)cc1 | inconclusive: 7.3 µM [activator, partial curve, poor fit]
18 | c1csc(-c2nnc(N3CCOCC3)c3ccccc23)c1 | inactive
19 | O=C(Nc1ccc(-c2nnc(-c3ccccc3)o2)cc1)C1CCCO1 (configuration not stated) | inconclusive: 0.58 µM [activator, partial curve]
20 | O=C(COc1ccc2c(-c3ccccc3)cc(=O)oc2c1)NC(Cc1c[nH]c2ccccc12)C(=O)O (configuration not stated) | inconclusive: 0.631 µM [activator, full curve, poor fit]
21 | CCCC(C)NC(=O)c1c2c(nc3ccccc13)CCC2 (configuration not stated) | inconclusive: 11.2 µM [activator, single point]

Row | Structure (SMILES) | Potency
22 | CCOc1ccc(N2CC(c3nc4ccccc4n3CCCOc3ccccc3OC)CC2=O)cc1 (configuration not stated) | inconclusive: 22.4 µM [inhibitor, single point]
23 | COc1ccc(N2C(=O)CC(NNC(=O)c3ccco3)C2=O)cc1 (configuration not stated) | inconclusive: 35.5 µM [activator, single point]
24 | O=S(=O)(Nc1nc2ccccc2nc1Nc1ccc(N2CCOCC2)cc1)c1cc(Cl)ccc1Cl | active: 7.3 µM
25 | CCN(C/C=C/c1ccccc1OC)Cc1ccccc1 | inconclusive: 11.2 µM [inhibitor, partial curve]
26 | CCOCCCNC(=O)c1ccc2c(c1)ncn2-c1cccc(C)c1 | inconclusive: 7.94 µM [inhibitor, partial curve, poor fit]
27 | CCC(=O)Nc1ccc2c(c1)nc1n2CCSC1 | inconclusive: 29.1 µM [activator, single point]
28 | OC(CSc1ccccc1)CN1CCN(c2ccc(Cl)cc2)CC1 (configuration not stated) | inactive
29 | CCCCn1c(N)c(N(CC(C)C)C(=O)C2CCN(C(=O)c3ccc(Cl)cc3)CC2)c(=O)[nH]c1=O | inconclusive: 0.398 µM [activator, full curve, poor fit]
30 | Nc1c(C(=O)Nc2ccc(Cl)c(C(F)(F)F)c2)sc2nc3c(cc12)N1CCC3CC1 | inconclusive: 25.1 µM [inhibitor, single point]
31 | CN[C@H](CC(C)C)C(=O)N[C@H]1C(=O)N[C@@H](CC(N)=O)C(=O)N[C@H]2C(=O)N[C@H]3C(=O)N[C@H](C(=O)N[C@H](C(=O)O)c4cc(O)cc(O)c4-c4cc3ccc4O)[C@H](O)c3ccc(c(Cl)c3)Oc3cc2cc(c3O[C@@H]2O[C@H](CO)[C@@H](O)[C@H](O)[C@H]2O[C@H]2C[C@](C)(N)[C@H](O)[C@H](C)O2)Oc2ccc(cc2Cl)[C@H]1O | inconclusive: 3.98 µM [inhibitor, full curve]
32 | O=C(Nc1ccc(Cl)cc1)c1cc(S(=O)(=O)N2CCOCC2)cs1 | inconclusive: 14.6 µM [inhibitor, partial curve]
33 | CCOC(=O)c1sc(=S)n(-c2ccc3c(c2)OCO3)c1N | inconclusive: 2.59 µM [inhibitor, full curve]
34 | COC(=O)c1ccccc1NC(=O)CSc1nnnn1-c1ccc(C)cc1C | inactive
35 | CN1/C(=C\C=C(/C#N)C(=O)Nc2ccc(Cl)cc2)C(C)(C)c2ccccc21 | inconclusive: 35.5 µM [activator, single point]
36 | CCOC(=O)c1ccc(Cl)c(NC(=O)c2ccc(-c3ccccc3)cc2)c1 | inconclusive: 29.1 µM [inhibitor, single point]
37 | O=C(C1CCCN(S(=O)(=O)c2cccc3nonc23)C1)N1CCN(c2ccccc2Cl)CC1 (configuration not stated) | inconclusive: 1.3 µM [inhibitor, full curve] and inconclusive: 3.55 µM [inhibitor, partial curve, poor fit]
38 | CCC(=O)N1CCN(c2ccccc2NC(=O)COc2cccc(C)c2)CC1 | inconclusive: 29.1 µM [inhibitor, single point]
39 | Cc1ccc(Nc2cc(C)nc(N3CCOCC3)n2)cc1 | active: 5.62 µM
40 | COc1ccc(C(=O)NCCCOC(C)C)cc1OC1CCN(C(C)=O)CC1 | inconclusive: 35.5 µM [activator, single point]
41 | CC(C)CCNC(=O)c1ccc(OC2CCN(S(=O)(=O)N(C)C)CC2)cc1 | inactive
42 | O=S(=O)(c1ccc(Br)s1)N1CCN(c2ccc(F)cc2)CC1 | inconclusive: 0.501 µM [inhibitor, full curve, poor fit]

Row | Structure (SMILES) | Potency
43 | C[C@H]1Cc2c(COc3ccccc3)nc3c(c2CO1)CN(C(=O)C1CC1)CC3 | inconclusive: 0.841 µM [inhibitor, partial curve, poor fit]
44 | CC(O)CNCCCCOc1ccc(OCc2ccccc2)cc1 (configuration not stated) | inconclusive: 0.562 µM [activator, full curve, poor fit]
45 | Cc1cc(NC(=O)COC(=O)C2CC(=O)N(c3ccc(Cl)cc3)C2)no1 (configuration not stated) | inactive
46 | O=C(CSc1ccccc1C(=O)NCc1ccccc1)NC1CCCCCCC1 | inconclusive: 6.31 µM [inhibitor, single point]
47 | COc1ccc(NC(=O)c2c(-c3ccccc3Cl)noc2C)c(OC)c1 | active: 14.6 µM
48 | CC(OC(=O)CCN=C1NS(=O)(=O)c2ccccc21)C(=O)Nc1ccc(S(N)(=O)=O)cc1 (configuration not stated) | inconclusive: 35.5 µM [activator, single point]
49 | COCCCNC(=O)c1ccc(Cn2c(=O)c3ccccc3n(Cc3ccccc3C)c2=O)cc1 | inactive and inconclusive: 35.5 µM [inhibitor, single point]
50 | CSc1cccc2sc(NC(=O)C3=COCCO3)nc12 | inactive
51 | O=C1C(=O)N(CCN2CCOCC2)[C@@H](c2ccccn2)/C1=C(/O)c1ccc(F)cc1 | inactive
52 | CC1CN(C(=O)c2ccccc2Nc2ccc(SC(F)F)cc2)CC(C)O1 (configuration not stated) | inconclusive: 22.4 µM [inhibitor, single point]
53 | Cc1ccccc1NC(=O)c1c(C)oc2ccc(O)c(CN3CCC(C)CC3)c12 | inconclusive: 35.5 µM [inhibitor, single point]
54 | CN1CCC(N(C)S(=O)(=O)c2ccc(NC(=O)c3ccc(S(=O)(=O)N(C)C)cc3)cc2)CC1 | inconclusive: 35.5 µM [inhibitor, single point]
55 | Cc1cc(Nc2cccc(Br)c2)c2ccccc2n1 | inconclusive: 15.8 µM [inhibitor, partial curve, poor fit]
56 | Cc1ccc(Nc2nnc(C3C(=O)N(C)C4(C)CC3c3cc(Br)ccc3O4)s2)cc1 (configuration not stated) | inconclusive: 20.6 µM [inhibitor, single point]
57 | COc1ccc(/C=C/C(=O)c2cc(F)ccc2OC(=O)c2ccccc2C)cc1OC | active: 5.17 µM
58 | O=C(CSc1nnc(NC(=O)C2CC2)s1)Nc1ccccc1Cl | inconclusive: 35.5 µM [inhibitor, single point]
59 | CCN(CC(=O)Nc1c(F)cccc1F)C(=O)CN1C(=O)c2ccccc2C1=O | inconclusive: 11.2 µM [activator, single point]
60 | CC(=O)N1c2ccc(S(=O)(=O)N3CCC(C(=O)NCCc4ccc(Cl)cc4)CC3)cc2CC1C (configuration not stated) | inconclusive: 4.47 µM [inhibitor, single point]
61 | COC(=O)c1ccc(/C=N/NC(=O)C(=O)NCc2ccccc2)cc1 | inconclusive: 35.5 µM [activator, single point]
62 | Cc1cc(C(=O)NC2CCCCC2)c(C)o1 | inconclusive: 6.31 µM [activator, single point]
